Measured values published in article PMC4128677 (PLoS ONE, 2014).
Some peptides are written in HELM: one residue between dots, names in brackets for other building blocks, links after the first $.

Test: general procedure: Fmoc solid-phase peptide synthesis; Fmoc-Thr(But)-Wang resin; HBTU/HOBt/DIEA; HOBT/DIC for Ce6
Settings: whole synthesis, scale ~0.05 mmol

Which isolated mass does the source give for “Ce6-[Tyr3]-octreotate-K3-[Tyr3]-octreotate” here?
The isolated mass was 7 mg.

What about the isolated yield of the same substance?
Its isolated yield is ~4% yield.

Which isolated mass does the source give for “PEPTIDE1{[Ce6].K.K.K.[dF].C.Y.[dW].K.T.C.T}$PEPTIDE1,PEPTIDE1,6:R3-11:R3$$$V2.0” here?
Its isolated mass is 15 mg.

What about the isolated yield of the same substance?
The isolated yield was ~13% yield.
